In patent US11118065B2, “Fluorenylaminoketone photoinitiator, preparation method thereof, and UV photocurable composition containing same” (CHANGZHOU TRONLY ADVANCED ELECTRONIC MATERIALS CO., LTD., priority 2017, dated 2021):

Tests used:
[1] = Example 24: UV flexographic printing ink on white paperboard; parameters: key: 1: odorless; 2: odorous; 3: irritatingly odorous; details: residual odor of cured film
[2] = Example 22: UV etching resist ink; parameters: key to Odor: 1: odorless; 2: odorous; 3: irritatingly odorous; key to Pattern integrity: Δ: there was no defect; □: there were a few defects; ▴: there were severe defects; details: for Odor: residual odor of cured film
[3] = Example 23: UV solder resist ink; parameters: key to Odor: 1: odorless; 2: odorous; 3: irritatingly odorous; key to Pattern integrity: Δ: there was no defect; □: there were a few defects; ▴: there were severe defects; key to Developability: ∘: no residue was observed in unexposed portions; ⊚: a small amount of residue was observed in unexposed portions, but the residual amount was acceptable; ●: significant residue was observed in unexposed portions; details: for Exposure demand mJ/cm^2: dry film 12-15 μm, 250-450 nm; for Odor: residual odor of cured film; for Yellowing: value of Δb
[4] = Example 21: UV coating on tin-plated steel plate; parameters: key to Odor: 1: odorless; 2: odorous; 3: irritatingly odorous; details: for Exposure demand mJ/cm^2: 25 μm, 250-450 nm; for Adherence: crosscut test GB9286-88; for Odor: residual odor of cured film; for Yellowing: value of Δb, colorimeter scan 400-700 nm, after baking at 80° C. for 24 h
[5] = Example 25: UV offset printing ink on plastic substrate; parameters: key to Odor: 1: odorless; 2: odorous; 3: irritatingly odorous; details: for Exposure demand mJ/cm^2: 2 μm, 250-450 nm; for Adherence: crosscut test GB9286-88; for Odor: residual odor of cured film; for Yellowing: value of Δb
[6] = Test of curing property: UV curing ink spray coated on ceramic tile; details: hundred-grid crosscut method, 5% photoinitiator, 60-80 μm, UV 80 mw/cm^2 for 50s

| Structure (SMILES) | Odor [1] | Pattern integrity [2] | Odor [2] | Pattern integrity [3] | Exposure demand mJ/cm^2 [3] [mJ/cm^2] | Odor [3] | Yellowing [3] | Exposure demand mJ/cm^2 [4] [mJ/cm^2] | Adherence [4] | Odor [4] | Yellowing [4] | Exposure demand mJ/cm^2 [5] [mJ/cm^2] | Adherence [5] | Odor [5] | Yellowing [5] | Adherence ([6]; black ink) | Adherence ([6]; blue ink) | Adherence ([6]; red ink) | Adherence ([6]; yellow ink) | Developability ([3]; 0.5% sodium hydroxide, 30±2° C., 60s, SEM) |
| --- | --- | --- | --- | --- | --- | --- | --- | --- | --- | --- | --- | --- | --- | --- | --- | --- | --- | --- | --- | --- |
| CCCCN(CCCC)c1ccc2c(c1)C(C)(C)c1cc(C(=O)C(CC)(Cc3ccccc3)N(C)C)ccc1-2 (stereo not drawn) [Compound 42] | 1 | Δ | 1 | Δ | 110 | 1 | 0.72 | – | – | – | – | – | – | – | – | – | – | – | – | – |
| CN(C)C(C)(Cc1ccccc1)C(=O)c1ccc2c(c1)Cc1ccccc1-2 (stereo not drawn) [Compound 26] | 1 | – | – | Δ | 110 | 1 | 0.79 | 110 | Level 0 | 1 | 0.79 | – | – | – | – | – | – | – | – | – |
| CSc1ccc(C(=O)C(C)(C)N2CCOCC2)cc1 [Compound 907, 2-methyl-1-[4-(methylthio)phenyl]-2-(4-morpholinyl)-1-acetone, reference compound] | 3 | ▴ | 3 | ▴ | 180 | 3 | 2.54 | 200 | Level 1 | 3 | 2.68 | 200 | Level 1 | 3 | 2.34 | Level 3 | Level 2 | Level 3 | Level 2 | – |
| CCCCC1(CCCC)c2cc(C(=O)c3ccccc3C)ccc2-c2ccc(C(=O)C(C)(C)N3CCOCC3)cc21 [Compound 10] | 1 | Δ | 1 | Δ | 100 | 1 | 0.75 | – | – | – | – | – | – | – | – | – | – | – | – | – |
| CCCCC1(CCCC)c2cc(C(=O)C(C)(C)N(CCC)CCC)ccc2-c2ccc(C(=O)C(C)(C)N(CCC)CCC)cc21 [Compound 25] | 1 | – | – | Δ | 100 | 1 | 0.81 | – | – | – | – | – | – | – | – | – | – | – | – | – |
| C=CCC1(CC=C)c2ccccc2-c2ccc(C(=O)C(CC)(Cc3ccccc3)N(C)C)cc21 (stereo not drawn) [Compound 34] | 1 | – | – | Δ | 100 | 1 | 0.79 | 110 | Level 0 | 1 | 0.75 | – | – | – | – | Level 0 | – | Level 0 | Level 0 | – |
| Cc1ccc2c(c1)C(C)(C)c1cc(C(=O)C(C)(C)N3CCOCC3)ccc1-2 [Compound 3] | 1 | Δ | 1 | – | – | – | – | – | – | – | – | 120 | Level 0 | 1 | 0.63 | – | – | – | – | – |
| CC(C)(C(=O)c1ccc(-c2ccccc2)cc1)N1CCOCC1 [Compound 307, 1-([1,1-biphenyl]-4-yl)-2-methyl-2-morpholinylpropan-1-one, reference compound] | 1 | ▴ | 1 | ▴ | 190 | 1 | 1.03 | 220 | Level 1 | 1 | 1.33 | – | – | – | – | – | – | – | – | ⊚ |
| CCCCC1(CCCC)c2cc(C(=O)c3ccccc3)ccc2-c2ccc(C(=O)C(CC)(Cc3ccccc3)N3CCOCC3)cc21 (stereo not drawn) [Compound 33] | 1 | – | – | – | – | – | – | – | – | – | – | 110 | Level 0 | 1 | 0.62 | – | – | – | – | – |
| CCCCC1(CCCC)c2ccccc2-c2ccc(C(=O)C(C)(Cc3ccccc3)N3CCOCC3)cc21 (stereo not drawn) [Compound 29] | 1 | Δ | 1 | Δ | 100 | 1 | 0.73 | – | – | – | – | – | – | – | – | – | – | – | – | – |
